Results are given in words; binding and its absence hold for the method and conditions named. In cells and extracts the contact can be indirect. A yes stands for co-enrichment or nearness to the bait. Other partners may have been found.

Protein sequences, listed by entry. Tags and fused reporters are not part of them.
UniProt P17844: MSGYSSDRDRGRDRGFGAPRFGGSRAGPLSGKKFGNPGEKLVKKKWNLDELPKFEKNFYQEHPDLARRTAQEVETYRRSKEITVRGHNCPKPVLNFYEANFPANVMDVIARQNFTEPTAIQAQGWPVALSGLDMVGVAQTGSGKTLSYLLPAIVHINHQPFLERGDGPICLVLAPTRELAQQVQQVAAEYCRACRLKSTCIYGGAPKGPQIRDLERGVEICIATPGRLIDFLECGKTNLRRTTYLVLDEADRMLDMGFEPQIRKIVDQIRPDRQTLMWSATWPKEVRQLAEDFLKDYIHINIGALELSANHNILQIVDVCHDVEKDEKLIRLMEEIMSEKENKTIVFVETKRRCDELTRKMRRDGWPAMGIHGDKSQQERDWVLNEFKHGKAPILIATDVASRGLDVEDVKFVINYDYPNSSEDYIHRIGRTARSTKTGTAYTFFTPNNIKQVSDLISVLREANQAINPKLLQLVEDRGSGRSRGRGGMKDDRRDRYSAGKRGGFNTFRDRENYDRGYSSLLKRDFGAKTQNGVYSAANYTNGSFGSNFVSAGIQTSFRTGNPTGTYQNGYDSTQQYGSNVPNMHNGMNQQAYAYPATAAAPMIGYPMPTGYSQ
UniProt Q07955: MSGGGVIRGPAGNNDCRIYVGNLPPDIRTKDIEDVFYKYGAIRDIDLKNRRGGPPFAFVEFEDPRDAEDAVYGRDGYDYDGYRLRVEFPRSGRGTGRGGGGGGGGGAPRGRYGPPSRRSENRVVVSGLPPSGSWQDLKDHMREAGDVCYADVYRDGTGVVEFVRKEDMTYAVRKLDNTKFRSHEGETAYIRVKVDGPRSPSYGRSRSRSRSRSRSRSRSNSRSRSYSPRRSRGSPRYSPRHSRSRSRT
UniProt Q92841: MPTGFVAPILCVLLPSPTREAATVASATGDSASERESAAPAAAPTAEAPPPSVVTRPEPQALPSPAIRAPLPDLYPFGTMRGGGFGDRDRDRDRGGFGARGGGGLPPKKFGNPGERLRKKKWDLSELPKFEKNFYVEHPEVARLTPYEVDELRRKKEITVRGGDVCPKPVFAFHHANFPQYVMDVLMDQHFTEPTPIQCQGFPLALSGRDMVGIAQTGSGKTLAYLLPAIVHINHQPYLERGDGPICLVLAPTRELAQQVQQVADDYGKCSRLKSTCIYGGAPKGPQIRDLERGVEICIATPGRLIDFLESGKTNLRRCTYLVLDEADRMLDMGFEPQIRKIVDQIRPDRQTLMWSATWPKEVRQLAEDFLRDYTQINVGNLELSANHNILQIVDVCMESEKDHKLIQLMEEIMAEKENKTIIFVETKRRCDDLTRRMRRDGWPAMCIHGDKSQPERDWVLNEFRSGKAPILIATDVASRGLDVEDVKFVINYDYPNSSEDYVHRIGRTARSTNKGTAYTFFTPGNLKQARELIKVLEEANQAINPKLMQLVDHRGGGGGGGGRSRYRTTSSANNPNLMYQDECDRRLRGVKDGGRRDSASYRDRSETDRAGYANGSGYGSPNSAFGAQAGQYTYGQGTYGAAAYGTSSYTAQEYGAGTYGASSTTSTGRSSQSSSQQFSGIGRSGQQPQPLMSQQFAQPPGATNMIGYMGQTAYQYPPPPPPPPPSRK

The assay has as its target RNA helicase DDX5 (human (endogenous in NHEKs)) (UniProt P17844). In words: affinity purification with mass spectrometry; NHEK lysate incubated with DDX5 antibody at 4 °C, protein A/G agarose beads; rabbit IgG control; Coomassie-stained bands cut and digested.

On to “splicing factor SF2 (also known as SRSF1) (from UniProt Q07955 1-248)”, for which the binding entry is on record as “binds”. Turning to DDX17 (from UniProt Q92841 1-729), the binding result is “binds”.

Source of the values: PMC9663298.
